Not every detail of the peptide structures is certain; ends, links or a residue may be inferred. Where no end group is shown, it is not given here.
Tests used:
rabbit duodenum muscle = assay: Intestinal canal contraction activity, Magnus method; type: cell-based; conditions: relative to chemically synthesized human motilin = 100%
[1] = Stability test: remained activity of motilin analogue solution preserved at 60°C, measured by HPLC; type: physicochemical; conditions: 0.lmg/ml in phosphate buffer (pH 5.0), sealed glass vials, activity just before preservation = 100%

Compound	Specific activity (%) (rabbit duodenum muscle)	Remained activity (%) 10th day ([1]; 10th day)	Remained activity (%) After 1 month ([1]; after 1 month)
FVPIFTYGELQRLQEKERNKGQ [[Leu^13]motilin, reference compound]	100%	88.9%	46.2%
CC[C@H](C)[C@H](NC(=O)[C@@H]1CCCN1C(=O)[C@@H](NC(=O)[C@@H](N)Cc1ccccc1)C(C)C)C(=O)N[C@@H](Cc1ccccc1)C(=O)N[C@H](C(=O)N[C@@H](Cc1ccc(O)cc1)C(=O)NCC(=O)N[C@@H](CCC(=O)O)C(=O)N[C@@H](CC(C)C)C(=O)N[C@@H](CCC(N)=O)C(=O)N[C@@H](CCCNC(=N)N)C(=O)N[C@@H](CCSC)C(=O)N[C@@H](CCC(N)=O)C(=O)N[C@@H](CCC(=O)O)C(=O)N[C@@H](CCCCN)C(=O)N[C@@H](CCC(=O)O)C(=O)N[C@@H](CCCNC(=N)N)C(=O)N[C@@H](CC(N)=O)C(=O)N[C@@H](CCCCN)C(=O)NCC(=O)N[C@@H](CCC(N)=O)C(=O)O)[C@@H](C)O [Motilin]	100%	–	–

From patent publication EP0561130B1, “Stabilized biologically active polypeptide and use thereof” (SANWA KAGAKU KENKYUSHO CO., LTD., priority 1992, dated 1997)
